Data as given in PubChem BioAssay AID504804 (Drosophila RNAi Screening Center, 2011)

Aim: 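dsRNAs that improve Kc cell survival under doxorubicin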 (primary screen)
System: Drosophila Kc cells
Reagent: long dsRNA against Drosophila genes, 0.5 µg dsRNA per well
Duration: 96 h (48 h knock-down, then 48 h drug)
Challenge: doxorubicin 5 µg/ml for 48 h, added 48 h after dsRNA
Detection: 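Luminescent ATP counts per replicate, not normalised, reflecting viable cells after 48 h dsRNA knock-down followed by 48 h of 5 µg/ml doxorubicin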
Reading the numbers: raw ATP luminescence: higher = more viable cells, protection from doxorubicin
Hit rule: 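Active when both duplicate wells lie at least 2 SD above the plate mean and protection is confirmed by rescreening and independent dsRNAs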
In all, the deposit lists about 19,000 reagents; this is an unselected part of those with a known target gene and a result. In the full data, 47 (0.25%) are marked active. 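Signals are raw, not normalised; exact z-scores behind calls not deposited; actives needed confirmation, so some wells reaching 2 SD are inactive.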 Reagents against one gene are numbered here. A plus sign joins genes that one reagent is predicted to hit. No sequences are given here.

Gene | reagent | raw ATP luminescence, replicate 1 | raw ATP luminescence, replicate 2 | call
CG9922 (GeneID 41708) | 1 | 1.18e5 | 1.05e5 | inactive
CG9123 (GeneID 32462) | 1 | 2.57e5 | 3.03e5 | inactive
CG8870 (GeneID 41645) | 1 | 86270 | 85850 | inactive
ced-6 (GeneID 35971) | 1 | 42280 | 73383 | inactive
CG31819 (GeneID 260658) | 1 | 2.56e5 | 2.55e5 | inactive
CG12594 (GeneID 41416) | 1 | 62573 | 57400 | inactive
CG12521 (GeneID 50289) | 1 | 95827 | 67623 | inactive
TwdlM (GeneID 43200) | 1 | 37510 | 47240 | inactive
CG6966 (GeneID 41816) | 1 | 61810 | 78370 | inactive
Jon99Ciii (GeneID 43543) | 1 | 34960 | 35950 | inactive
CG15772 (GeneID 31498) | 1 | 36550 | 44890 | inactive
Lpin (GeneID 35790) | 1 | 76587 | 55863 | inactive
CG12307 (GeneID 34584) | 1 | 46560 | 72423 | inactive
CG31195 (GeneID 46155) | 1 | 1.28e5 | 1.69e5 | inactive
CG14626 (GeneID 31064) | 1 | 56980 | 56540 | inactive
CG14194 (GeneID 32908) | 1 | 3.40e5 | 3.34e5 | inactive
CG7800 (GeneID 40963) | 1 | 66963 | 59320 | inactive
CG14052 (GeneID 31203) | 1 | 59530 | 69560 | inactive
CG14052 (GeneID 31203) | 2 | 56740 | 66660 | inactive
ThrRS (GeneID 45784) | 1 | 75097 | 56543 | inactive
CG31344 (GeneID 41835) | 1 | 98690 | 78030 | inactive
CG11109 (GeneID 40507) | 1 | 36810 | 23977 | inactive
bark (GeneID 33604) | 1 | 28333 | 31100 | inactive
Ptpa (GeneID 33555) | 1 | 1.19e5 | 58300 | inactive
CG6791 (GeneID 41391) | 1 | 59100 | 31340 | inactive
CG1724 (GeneID 33097) | 1 | 2.50e5 | 2.36e5 | inactive
CG13982 (GeneID 33895) | 1 | 30303 | 29337 | inactive
Fer3 (GeneID 41411) | 1 | 45157 | 27023 | inactive
CG33309 (GeneID 2768926) | 1 | 2.78e5 | 2.53e5 | inactive
pelo (GeneID 34286) | 1 | 1.13e5 | 76923 | inactive
CG9008 (GeneID 34779) | 1 | 75870 | 66133 | inactive
Nacalpha (GeneID 36409) | 1 | 70800 | 54067 | inactive
ATP6AP2 (GeneID 41104) | 1 | 54727 | 55593 | inactive
CG31019 (GeneID 318558) | 1 | 2.84e5 | 2.79e5 | inactive
Rrp45 (GeneID 32665) | 1 | 2.98e5 | 2.71e5 | inactive
C901 (GeneID 32032) | 1 | 3.65e5 | 3.20e5 | inactive
CG8531 (GeneID 36584) | 1 | 72113 | 62867 | inactive
Akap200 (GeneID 34170) | 1 | 92220 | 74413 | inactive
brp (GeneID 35977) | 1 | 54973 | 64913 | inactive
brp (GeneID 35977) | 2 | 38513 | 72467 | inactive
brp (GeneID 35977) | 3 | 44137 | 69777 | inactive
CG6790 (GeneID 41388) | 1 | 46780 | 36133 | inactive
Proc-R (GeneID 31408) | 1 | 47170 | 48880 | inactive
Atx2 (GeneID 41883) | 1 | 15373 | 8573 | inactive
CG9485 (GeneID 37435) | 1 | 72113 | 91077 | inactive
Nedd8 (GeneID 35151) | 1 | 46910 | 49347 | inactive
eIF2Bdelta (GeneID 37706) | 1 | 71697 | 53770 | inactive
dlp (GeneID 39596) | 1 | 13747 | 12037 | inactive
dlp (GeneID 39596) | 2 | 69903 | 55580 | inactive

Laid out differently: results already given
Gene,reagent,"raw ATP luminescence, replicate 1","raw ATP luminescence, replicate 2",call
CG14194 (GeneID 32908),1,3.40e5,3.34e5,inactive
CG7800 (GeneID 40963),1,66963,59320,inactive
CG14052 (GeneID 31203),1,59530,69560,inactive
CG14052 (GeneID 31203),2,56740,66660,inactive
ThrRS (GeneID 45784),1,75097,56543,inactive
CG31344 (GeneID 41835),1,98690,78030,inactive
CG11109 (GeneID 40507),1,36810,23977,inactive
bark (GeneID 33604),1,28333,31100,inactive
Ptpa (GeneID 33555),1,1.19e5,58300,inactive
CG6791 (GeneID 41391),1,59100,31340,inactive
CG1724 (GeneID 33097),1,2.50e5,2.36e5,inactive
CG13982 (GeneID 33895),1,30303,29337,inactive
Fer3 (GeneID 41411),1,45157,27023,inactive
CG33309 (GeneID 2768926),1,2.78e5,2.53e5,inactive

Further reagents follow.
Gene | reagent | raw ATP luminescence, replicate 1 | raw ATP luminescence, replicate 2 | call
kappaB-Ras + CG30503 | 1 | 37657 | 76193 | inactive
kappaB-Ras + CG30503 | 2 | 39657 | 71393 | inactive
Ir94h (GeneID 42769) | 1 | 74480 | 58450 | inactive
NdufV3 (GeneID 32076) | 1 | 3.33e5 | 2.85e5 | inactive
Nos (GeneID 34495) | 1 | 76287 | 44477 | inactive
Picot (GeneID 36865) | 1 | 45697 | 1.11e5 | inactive
TkR86C (GeneID 41286) | 1 | 68133 | 53880 | inactive
CG11030 (GeneID 33805) | 1 | 31773 | 34553 | inactive
CG42331 (GeneID 42948) | 1 | 2.14e5 | 1.87e5 | inactive
CG42331 (GeneID 42948) | 2 | 70060 | 67330 | inactive
CG4278 (GeneID 34970) | 1 | 76540 | 55343 | inactive
Polr1A (GeneID 36617) | 1 | 57073 | 48690 | inactive
CG4607 (GeneID 31653) | 1 | 42800 | 50870 | inactive
l(3)72Dp (GeneID 317887) | 1 | 36800 | 36827 | inactive
bip1 (GeneID 38891) | 1 | 40813 | 31653 | inactive
CG10730 (GeneID 35291) | 1 | 57850 | 63673 | inactive
Hmgcl (GeneID 33978) | 1 | 19177 | 27870 | inactive
CG9875 (GeneID 37698) | 1 | 49343 | 49803 | inactive
Sidpn (GeneID 35168) | 1 | 70090 | 64223 | inactive
CG30492 (retired record) + M7BP | 1 | 84543 | 84977 | inactive
CG30492 (retired record) + M7BP | 2 | 71483 | 75923 | inactive
CG30492 (retired record) + M7BP | 3 | 99053 | 1.14e5 | inactive
CG30492 (retired record) + M7BP | 4 | 44923 | 86390 | inactive
CG30492 (retired record) + M7BP | 5 | 41373 | 79733 | inactive
Patj (GeneID 44100) | 1 | 57090 | 44037 | inactive
tbrd-3 (GeneID 246604) | 1 | 56930 | 55273 | inactive
RpS4 (GeneID 39484) | 1 | 61037 | 62840 | inactive
CG5214 (GeneID 41360) | 1 | 64210 | 52613 | inactive
CG12009 (GeneID 38405) | 1 | 43033 | 39463 | inactive
Gr2a (GeneID 31093) | 1 | 51710 | 23930 | inactive
Plekhm1 (GeneID 37520) | 1 | 62433 | 49103 | inactive
Osi12 (GeneID 40766) | 1 | 71773 | 51733 | inactive
Or1a (GeneID 30978) | 1 | 67510 | 47760 | inactive
CG3430 (GeneID 33976) | 1 | 88480 | 62843 | inactive
CG11000 (GeneID 40721) | 1 | 78703 | 62617 | inactive
